# Earlier results in patent publication US20070032554A1, “Treatment of stuttering and other communication disorders with norepinephrine reuptake inhibitors” (ELILILLY AND COMPANY a Corporation, priority 2003, published 2007).
# For at least one compound, name, drawing or mass did not settle the structure.
# Settings: literature reports in persons who stutter
structure (smiles),measurement,value
Cc1cc2c(s1)Nc1ccccc1N=C2N1CCN(C)CC1 [Olanzapine],effect on stuttering,used successfully
